From publication PMC3104994
These are yes or no findings as the source states them, for the method shown. Binding seen in cells or lysates may run through a third protein. Some results given as binding are weak or reduced against the parent protein; the word gives no strength.

The chains behind the UniProt entries cited, without tags or fusion partners. Residues count along the entry.
UniProt O43295: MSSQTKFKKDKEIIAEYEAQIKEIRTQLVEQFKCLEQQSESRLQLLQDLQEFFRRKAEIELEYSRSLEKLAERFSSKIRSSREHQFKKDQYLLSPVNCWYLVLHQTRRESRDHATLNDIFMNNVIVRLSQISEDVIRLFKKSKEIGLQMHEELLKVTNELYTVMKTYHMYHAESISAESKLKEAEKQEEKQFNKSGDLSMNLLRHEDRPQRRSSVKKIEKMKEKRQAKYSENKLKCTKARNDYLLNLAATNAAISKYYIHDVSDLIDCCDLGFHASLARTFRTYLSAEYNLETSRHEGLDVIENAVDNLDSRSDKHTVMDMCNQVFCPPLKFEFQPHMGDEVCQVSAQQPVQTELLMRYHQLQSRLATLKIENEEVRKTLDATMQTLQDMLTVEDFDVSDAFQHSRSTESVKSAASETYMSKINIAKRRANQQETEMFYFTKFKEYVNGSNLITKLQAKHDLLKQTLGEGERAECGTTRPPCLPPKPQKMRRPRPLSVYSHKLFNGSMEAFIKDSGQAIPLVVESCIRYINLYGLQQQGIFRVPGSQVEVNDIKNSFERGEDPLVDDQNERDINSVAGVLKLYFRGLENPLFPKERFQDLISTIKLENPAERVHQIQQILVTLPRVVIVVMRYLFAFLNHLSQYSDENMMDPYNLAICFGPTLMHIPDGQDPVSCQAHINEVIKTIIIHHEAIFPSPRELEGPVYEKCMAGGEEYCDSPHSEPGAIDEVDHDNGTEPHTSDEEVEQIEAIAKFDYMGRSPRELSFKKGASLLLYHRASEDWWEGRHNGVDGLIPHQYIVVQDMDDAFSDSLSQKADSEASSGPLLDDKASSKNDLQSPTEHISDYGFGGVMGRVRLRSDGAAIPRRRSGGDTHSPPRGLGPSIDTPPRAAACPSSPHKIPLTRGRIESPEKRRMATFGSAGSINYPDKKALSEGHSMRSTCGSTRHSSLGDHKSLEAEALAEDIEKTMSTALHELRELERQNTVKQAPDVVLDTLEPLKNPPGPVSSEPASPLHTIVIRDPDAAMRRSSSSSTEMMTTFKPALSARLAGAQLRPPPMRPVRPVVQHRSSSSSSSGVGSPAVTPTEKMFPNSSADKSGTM
UniProt Q9HCK4, residues 22-1378: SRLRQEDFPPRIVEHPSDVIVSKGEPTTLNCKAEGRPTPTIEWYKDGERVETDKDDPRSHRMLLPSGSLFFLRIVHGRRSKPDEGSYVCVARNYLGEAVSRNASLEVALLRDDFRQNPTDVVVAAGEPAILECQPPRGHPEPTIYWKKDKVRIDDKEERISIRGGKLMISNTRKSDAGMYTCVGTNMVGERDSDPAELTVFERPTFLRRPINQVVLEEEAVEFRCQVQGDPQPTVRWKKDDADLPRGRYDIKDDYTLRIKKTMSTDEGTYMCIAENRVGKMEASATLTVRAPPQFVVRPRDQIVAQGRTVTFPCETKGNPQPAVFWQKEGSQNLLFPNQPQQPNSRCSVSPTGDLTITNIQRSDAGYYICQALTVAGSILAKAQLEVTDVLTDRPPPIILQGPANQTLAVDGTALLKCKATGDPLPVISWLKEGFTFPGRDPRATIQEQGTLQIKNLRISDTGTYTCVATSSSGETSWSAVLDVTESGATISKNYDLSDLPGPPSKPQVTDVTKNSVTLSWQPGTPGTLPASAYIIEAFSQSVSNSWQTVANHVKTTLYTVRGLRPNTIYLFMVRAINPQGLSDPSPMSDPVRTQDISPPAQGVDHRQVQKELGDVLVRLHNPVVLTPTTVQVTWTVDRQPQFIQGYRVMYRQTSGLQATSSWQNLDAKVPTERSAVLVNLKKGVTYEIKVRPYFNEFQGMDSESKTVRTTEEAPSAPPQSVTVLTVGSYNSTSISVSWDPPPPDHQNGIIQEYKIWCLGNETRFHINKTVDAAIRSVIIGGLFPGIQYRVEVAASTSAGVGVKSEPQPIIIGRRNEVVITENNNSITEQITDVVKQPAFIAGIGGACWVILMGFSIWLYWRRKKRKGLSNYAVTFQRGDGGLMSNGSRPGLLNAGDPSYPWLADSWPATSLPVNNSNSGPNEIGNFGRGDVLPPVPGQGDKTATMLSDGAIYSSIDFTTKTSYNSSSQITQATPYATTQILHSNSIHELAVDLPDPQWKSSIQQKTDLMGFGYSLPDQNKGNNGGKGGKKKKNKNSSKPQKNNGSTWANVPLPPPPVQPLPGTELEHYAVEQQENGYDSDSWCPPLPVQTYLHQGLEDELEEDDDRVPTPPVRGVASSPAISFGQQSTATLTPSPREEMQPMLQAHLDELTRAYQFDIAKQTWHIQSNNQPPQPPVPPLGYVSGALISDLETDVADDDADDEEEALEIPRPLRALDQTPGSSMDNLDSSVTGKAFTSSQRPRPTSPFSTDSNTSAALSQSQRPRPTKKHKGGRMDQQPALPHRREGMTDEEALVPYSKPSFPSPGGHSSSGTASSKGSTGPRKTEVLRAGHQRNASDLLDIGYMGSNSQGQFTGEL
UniProt Q9Y6N7, residues 26-1651: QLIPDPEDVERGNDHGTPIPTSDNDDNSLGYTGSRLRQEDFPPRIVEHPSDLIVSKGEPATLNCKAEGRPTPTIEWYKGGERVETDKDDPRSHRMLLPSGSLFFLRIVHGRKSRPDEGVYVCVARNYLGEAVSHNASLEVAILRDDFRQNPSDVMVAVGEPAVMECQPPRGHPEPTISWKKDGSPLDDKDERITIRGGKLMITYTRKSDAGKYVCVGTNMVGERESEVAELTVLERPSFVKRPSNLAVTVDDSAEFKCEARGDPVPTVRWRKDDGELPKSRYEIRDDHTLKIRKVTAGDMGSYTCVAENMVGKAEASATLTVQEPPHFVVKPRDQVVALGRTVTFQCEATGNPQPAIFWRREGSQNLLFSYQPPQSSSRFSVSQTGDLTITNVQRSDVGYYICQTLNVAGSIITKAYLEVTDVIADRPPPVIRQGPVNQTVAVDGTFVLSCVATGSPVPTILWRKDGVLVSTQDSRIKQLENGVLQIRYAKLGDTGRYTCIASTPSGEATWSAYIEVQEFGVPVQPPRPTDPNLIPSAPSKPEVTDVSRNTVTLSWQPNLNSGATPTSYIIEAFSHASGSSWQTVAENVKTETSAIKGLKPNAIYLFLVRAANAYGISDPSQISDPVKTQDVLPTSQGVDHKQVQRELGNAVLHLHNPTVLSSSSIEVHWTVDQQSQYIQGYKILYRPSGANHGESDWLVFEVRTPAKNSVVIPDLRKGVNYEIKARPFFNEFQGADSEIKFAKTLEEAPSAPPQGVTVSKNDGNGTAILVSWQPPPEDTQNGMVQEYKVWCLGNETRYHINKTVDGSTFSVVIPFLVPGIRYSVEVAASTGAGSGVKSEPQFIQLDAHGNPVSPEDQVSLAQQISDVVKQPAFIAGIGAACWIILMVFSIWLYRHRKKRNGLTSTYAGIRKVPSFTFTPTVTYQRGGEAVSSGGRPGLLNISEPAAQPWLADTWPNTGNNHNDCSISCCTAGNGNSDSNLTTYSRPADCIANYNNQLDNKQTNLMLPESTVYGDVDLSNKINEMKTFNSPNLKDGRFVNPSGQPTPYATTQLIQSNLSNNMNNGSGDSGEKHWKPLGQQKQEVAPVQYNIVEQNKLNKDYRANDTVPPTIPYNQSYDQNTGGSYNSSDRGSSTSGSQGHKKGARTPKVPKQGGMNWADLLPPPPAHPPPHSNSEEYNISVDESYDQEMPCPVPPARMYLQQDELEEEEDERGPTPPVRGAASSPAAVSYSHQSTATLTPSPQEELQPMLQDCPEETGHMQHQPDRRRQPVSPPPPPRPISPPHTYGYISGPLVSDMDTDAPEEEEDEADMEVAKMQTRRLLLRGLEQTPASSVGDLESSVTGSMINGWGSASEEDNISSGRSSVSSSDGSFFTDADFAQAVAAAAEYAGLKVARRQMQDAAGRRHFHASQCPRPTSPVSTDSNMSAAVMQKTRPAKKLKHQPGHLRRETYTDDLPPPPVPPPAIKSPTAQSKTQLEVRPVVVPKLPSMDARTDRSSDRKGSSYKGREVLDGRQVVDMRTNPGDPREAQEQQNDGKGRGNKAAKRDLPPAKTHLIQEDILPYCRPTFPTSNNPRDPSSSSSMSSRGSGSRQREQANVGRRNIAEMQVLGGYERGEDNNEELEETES

Target: Slit-Robo GTPase activating protein 3 (srGAP3), full length (UniProt O43295)
Assay: co-IP; HEK293 cells transiently co-transfected with srGAP3 and Myc-tagged Robo1/2 constructs; lysed in modified RIPA buffer (50 mM Tris/HCl pH 7.4, 1% NP-40, 0.25% Na-deoxycholate, 1 mM EDTA); 400 µg lysate precipitated with rabbit srGAP3 (19.1) antibody and protein A/G sepharose; blot with anti-myc 9E10

binding | Substance
binds | Myc-tagged Robo2, full length (from UniProt Q9HCK4 22-1378) (receptor)
binds | Myc-tagged Robo1, full length (from UniProt Q9Y6N7 26-1651) (receptor)
